{"source": "the supplement of paper PMC8104966", "note": "The list shows a part of the results. Single values are uncertain here, since repeats match poorly.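 Fusion between ACE2-bearing and full-length-spike-bearing U2OS cells was measured by imaging as the percentage of nuclei with both cell types' fluorescent markers. An inhibitory hit is a non-toxic compound whose fusion z-score is below -3, more than three standard deviations beneath the plate's DMSO wells.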", "data": [{"tested_on": "U2OS ACE2 x SARS-CoV-2 spike co-culture", "assay": "cell-cell fusion (fraction fused) z-score vs plate DMSO control; higher = more fusion", "settings": "30 µM; 5 h; toxicity class: non-toxic, passed QC", "values": [{"smiles": "CCCCC(O)c1ccccc1", "note": "(centres undefined) [Fenipentol]", "cell-cell fusion (z-score)": "inactive: 2.02"}, {"smiles": "O=C(O)c1cc(/N=N/c2ccc(S(=O)(=O)Nc3ccccn3)cc2)ccc1O", "cell-cell fusion (z-score)": "inactive: -0.146"}, {"smiles": "CC1(C)C=Cc2c(c3c(c4c(=O)c(-c5ccc(O)c(O)c5)coc24)OC(C)(C)CC3)O1", "cell-cell fusion (z-score)": "active: -5.31"}, {"smiles": "CCN1CCCC(OC(=O)C(c2ccccc2)c2ccccc2)C1.Cl", "note": "(centres undefined)", "cell-cell fusion (z-score)": "inactive: 1.58"}, {"smiles": "CCCCc1ncc(/C=C(\\Cc2cccs2)C(=O)O)n1Cc1ccc(C(=O)O)cc1.CS(=O)(=O)O", "note": "[Eprosartan Mesylate]", "cell-cell fusion (z-score)": "inactive: 2.71"}, {"smiles": "O=C(O)CCCCC1CCSS1", "note": "(centres undefined)", "cell-cell fusion (z-score)": "inactive: 2.39"}, {"smiles": "CO[C@H]1/C=C/O[C@@]2(C)Oc3c(C)c(O)c4c(O)c(c5c(nc6cc(C)ccn65)c4c3C2=O)NC(=O)/C(C)=C\\C=C\\[C@H](C)[C@H](O)[C@@H](C)C(O)[C@@H](C)[C@H](OC(C)=O)[C@@H]1C", "note": "(some centres undefined)", "cell-cell fusion (z-score)": "inactive: 3.97"}, {"smiles": "CO[C@]12C[C@@H](COC(=O)c3cncc(Br)c3)CN(C)[C@@H]1Cc1cn(C)c3cccc2c13", "cell-cell fusion (z-score)": "inactive: 2.5"}, {"smiles": "CCCCCCCCCCCCCCCC(=O)OCC(O)CO", "note": "(centres undefined)", "cell-cell fusion (z-score)": "inactive: 2.62"}, {"smiles": "CC1(C)CC[C@]2(C(=O)O)CC[C@]3(C)C(=CCC4[C@@]5(C)CC[C@H](O)[C@@](C)(CO)C5CC[C@]43C)C2C1", "note": "(some centres undefined)", "cell-cell fusion (z-score)": "inactive: 2.42"}, {"smiles": "Cl.O=c1n(CCCN2CCN(c3cccc(Cl)c3)CC2)nc2ccccn12", "note": "[Trazodone hydrochloride]", "cell-cell fusion (z-score)": "inactive: 3.79"}, {"smiles": "CC(C)[C@@H]1CC[C@@H](C)C[C@@H]1P(=O)(c1ccccc1)c1ccccc1", "cell-cell fusion (z-score)": "inactive: 2.51"}, {"smiles": "CC(=O)NBr", "note": "[N-Bromoacetamide]", "cell-cell fusion (z-score)": "inactive: 1.99"}, {"smiles": "CN1CCCC1CCOC(C)(c1ccccc1)c1ccc(Cl)cc1.O=C(O)/C=C/C(=O)O", "note": "(centres undefined) [Clemastine fumarate]", "cell-cell fusion (z-score)": "inactive: 2.25"}, {"smiles": "Cn1c(=O)c2[nH]cnc2n(C)c1=O.O", "note": "[Theophylline monohydrate]", "cell-cell fusion (z-score)": "inactive: 1.69"}, {"smiles": "Cl.Clc1ccc(Cn2c(CN3CCCC3)nc3ccccc32)cc1", "note": "[Clemizole hydrochloride]", "cell-cell fusion (z-score)": "inactive: 1.55"}, {"smiles": "CNC(=O)c1ccc(N2C(=S)N(c3cnc(C#N)c(C(F)(F)F)c3)C(=O)C23CCC3)cc1F", "note": "[Apalutamide]", "cell-cell fusion (z-score)": "inactive: 1.85"}, {"smiles": "O=c1[nH]c(=O)n([C@H]2C[C@H](O)[C@@H](CO)O2)cc1C(F)(F)F", "note": "[Trifluridine]", "cell-cell fusion (z-score)": "inactive: 4.06"}, {"smiles": "O=C1O[C@@H](CO)[C@H](O)[C@@H](O)[C@@H]1O", "cell-cell fusion (z-score)": "inactive: 2.74"}, {"smiles": "C[C@@H]1CCO[C@H]2Cn3cc(C(=O)NCc4ccc(F)cc4F)c(=O)c([O-])c3C(=O)N12.[Na+]", "note": "[Dolutegravir sodium]", "cell-cell fusion (z-score)": "inactive: 2.43"}, {"smiles": "CCC(=O)c1ccc(O)cc1", "cell-cell fusion (z-score)": "inactive: 2.48"}, {"smiles": "O=c1cc(-c2ccccc2)oc2ccccc12", "cell-cell fusion (z-score)": "inactive: 1.34"}, {"smiles": "Nc1cc(-c2ccncc2)c[nH]c1=O", "note": "[Amrinone]", "cell-cell fusion (z-score)": "inactive: 2.92"}, {"smiles": "CNC(=O)c1ccccc1Sc1ccc2c(/C=C/c3ccccn3)n[nH]c2c1", "note": "[Axitinib]", "cell-cell fusion (z-score)": "inactive: 1.22"}, {"smiles": "CN(C)C/C=C(/c1ccc(Br)cc1)c1cccnc1.Cl.Cl", "note": "[Zimelidine dihydrochloride]", "cell-cell fusion (z-score)": "inactive: 0.163"}, {"smiles": "CC[C@H]1OC(=O)[C@H](C)[C@@H](O[C@H]2C[C@@](C)(OC)[C@@H](O)[C@H](C)O2)[C@H](C)[C@@H](O[C@@H]2O[C@H](C)C[C@H](N(C)C)[C@H]2O)[C@](C)(O)C[C@@H](C)CN(C)[C@H](C)[C@@H](O)[C@]1(C)O", "cell-cell fusion (z-score)": "inactive: 3.52"}, {"smiles": "CC[C@H]1OC(=O)[C@H](C)[C@@H](O[C@H]2C[C@@](C)(OC)[C@@H](O)[C@H](C)O2)[C@H](C)[C@@H](O[C@@H]2O[C@H](C)C[C@H](N(C)C)[C@H]2O)[C@](C)(O)C[C@@H](C)CN(C)[C@H](C)[C@@H](O)[C@]1(C)O", "note": "[Azithromycin]", "cell-cell fusion (z-score)": "inactive: -0.373"}, {"smiles": "CC(N)CCCC(C)(C)O.Cl", "note": "(centres undefined)", "cell-cell fusion (z-score)": "inactive: 0.618"}, {"smiles": "O=C(O)c1cccc(O)c1O", "cell-cell fusion (z-score)": "inactive: 1.52"}, {"smiles": "COc1ccccc1N1CCNCC1.Cl", "note": "[1-(2-Methoxyphenyl)piperazine hydrochloride]", "cell-cell fusion (z-score)": "inactive: 2.19"}, {"smiles": "NC(=O)CC[C@H](N)C(=O)O", "note": "[L-Glutamine]", "cell-cell fusion (z-score)": "inactive: 3.62"}, {"smiles": "O=C(CCCN1CC=C(n2c(=O)[nH]c3ccccc32)CC1)c1ccc(F)cc1", "note": "[Droperidol]", "cell-cell fusion (z-score)": "inactive: 3.05"}, {"smiles": "O=C(O)Cc1ccc(-c2ccccc2)cc1", "cell-cell fusion (z-score)": "inactive: 2.56"}, {"smiles": "COc1ccc(C(=O)c2ccccc2)c(O)c1", "cell-cell fusion (z-score)": "inactive: -0.369"}, {"smiles": "[Cl-].c1ccc2c(c1)[I+]c1ccccc1-2", "note": "[Diphenyleneiodonium chloride]", "cell-cell fusion (z-score)": "inactive: 2.6"}, {"smiles": "CC(C)CC(N)=O", "cell-cell fusion (z-score)": "inactive: 3.14"}, {"smiles": "CO[C@H]1/C=C/O[C@@]2(C)Oc3c(C)c(O)c4c(O)c(c5c(nc6cc(C)ccn65)c4c3C2=O)NC(=O)/C(C)=C\\C=C\\[C@H](C)[C@H](O)[C@@H](C)[C@@H](O)[C@@H](C)[C@H](OC(C)=O)[C@@H]1C", "note": "[Rifaximin]", "cell-cell fusion (z-score)": "inactive: 5.72"}, {"smiles": "CSc1nc(N)c2ncn([C@@H]3O[C@H](COP(=O)([O-])OP(=O)([O-])[O-])[C@H](O)C3O)c2n1.[Na+].[Na+].[Na+]", "note": "(some centres undefined)", "cell-cell fusion (z-score)": "inactive: 1.67"}, {"smiles": "CCc1c(C)[nH]c2c1C(=O)C(CN1CCOCC1)CC2.Cl", "note": "(centres undefined)", "cell-cell fusion (z-score)": "inactive: 0.333"}, {"smiles": "CCc1c(C)[nH]c2c1C(=O)C(CN1CCOCC1)CC2.Cl", "note": "(centres undefined) [Molindone hydrochloride]", "cell-cell fusion (z-score)": "inactive: 3.68"}, {"smiles": "CC(C)NP(=O)(NC(C)C)OP(=O)(NC(C)C)NC(C)C", "note": "[Tetraisopropyl pyrophosphoramide]", "cell-cell fusion (z-score)": "inactive: 1.65"}, {"smiles": "COc1cc2nccc(Oc3ccc(NC(=O)C4(C(=O)Nc5ccc(F)cc5)CC4)cc3)c2cc1OC.Cl", "cell-cell fusion (z-score)": "active: -3.67"}, {"smiles": "COC1=C[C@]23CCCN2CCc2cc4c(cc2[C@@H]3[C@@H]1O)OCO4", "note": "[Cephalotaxine]", "cell-cell fusion (z-score)": "inactive: 0.877"}, {"smiles": "CCC[C@H](NC(=O)[C@@H]1[C@H]2CCC[C@H]2CN1C(=O)[C@@H](NC(=O)[C@@H](NC(=O)c1cnccn1)C1CCCCC1)C(C)(C)C)C(=O)C(=O)NC1CC1", "note": "[Telaprevir]", "cell-cell fusion (z-score)": "inactive: 2.09"}]}]}
